Measured values: publication PMC2225408
Results are given in words; binding and its absence hold for the method and conditions named. For part of these data: In cells and extracts the contact can be indirect. Some entries that bind do so weakly or less than the wild type.

By UniProt entry, the sequences of proteins in these tests, tags left out.
UniProt Q99627: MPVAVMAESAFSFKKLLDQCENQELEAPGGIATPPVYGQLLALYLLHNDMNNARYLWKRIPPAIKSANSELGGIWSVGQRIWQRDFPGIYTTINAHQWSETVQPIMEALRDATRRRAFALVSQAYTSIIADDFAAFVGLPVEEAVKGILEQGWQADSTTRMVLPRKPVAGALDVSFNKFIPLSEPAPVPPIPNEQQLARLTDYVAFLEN
UniProt Q15691: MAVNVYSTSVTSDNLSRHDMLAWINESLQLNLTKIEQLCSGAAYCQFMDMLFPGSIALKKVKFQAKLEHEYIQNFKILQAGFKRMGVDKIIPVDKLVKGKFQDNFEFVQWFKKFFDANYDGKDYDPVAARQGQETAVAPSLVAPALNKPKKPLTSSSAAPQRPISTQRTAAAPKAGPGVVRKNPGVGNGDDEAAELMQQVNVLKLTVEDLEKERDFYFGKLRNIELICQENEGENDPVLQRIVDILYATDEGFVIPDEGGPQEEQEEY
UniProt Q92905: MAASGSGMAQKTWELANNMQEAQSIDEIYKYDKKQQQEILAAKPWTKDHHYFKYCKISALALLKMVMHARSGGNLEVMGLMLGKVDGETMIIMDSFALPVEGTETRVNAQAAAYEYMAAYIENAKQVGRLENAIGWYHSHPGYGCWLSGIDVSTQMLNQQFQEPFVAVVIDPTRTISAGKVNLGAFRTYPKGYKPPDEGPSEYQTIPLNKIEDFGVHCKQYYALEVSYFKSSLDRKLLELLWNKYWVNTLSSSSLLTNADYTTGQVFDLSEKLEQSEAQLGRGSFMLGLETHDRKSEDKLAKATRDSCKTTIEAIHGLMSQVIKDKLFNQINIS

Legend:
[1] = molecular target: CSN8, endogenous in HeLa cells (human (endogenous in HeLa)) (UniProt Q99627); test: co-sedimentation; glycerol gradient centrifugation of lysates from siGFP and siCSN5 HeLa cells; fractions 1 to 19 probed with anti-CSN5 and anti-CSN8
[2] = molecular target: CSN8, endogenous in HeLa cells (human (endogenous in HeLa)) (UniProt Q99627); test: native gel or EMSA; non-denaturing gel electrophoresis (Phast-gel system) of lysates from siGFP and siCSN5 HeLa cells; same blot probed with anti-CSN5 and anti-CSN8
[3] = molecular target: recombinant GST-EB1 (microtubule-end-binding protein 1) (UniProt Q15691); test: pull-down; GST pull-down; purified CSN, recombinant GST-EB1 and increasing amounts of recombinant His-CSN5 incubated for 30 min at 37°C; precipitates probed by anti-EB1 and anti-CSN3 antibodies; both purified

Row | binding [1] | binding [2] | binding [3] | Substance
1 | binds | binds | – | CSN5, endogenous in HeLa cells (from UniProt Q92905 1-334)
2 | – | – | binds | recombinant His-CSN5 (from UniProt Q92905 1-334)
